Data as given in PubChem BioAssay AID493246 (Drosophila RNAi Screening Center, 2011).

Screen: 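Genome-wide search for dsRNAs that reduce cell number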 (primary screen)
Cells: Drosophila Kc and S2R+ cells
Reagent: long dsRNA against Drosophila genes
Read-out: 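Raw, unnormalised count of remaining cells in each well; per-plate z-scores of cell number underlie the calls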
Reading the numbers: Kc cell number and S2R+ cell number: higher = more cells remaining
Hit rule: 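Active when the per-plate z-score of cell number is 3 or more in the direction of fewer cells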
The deposit covers about 21,000 reagents; shown is an unselected part of those with a known target gene and a result. Of all reagents, 429 (2%) are marked active. 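Values are raw and not normalised between plates; calls rest on per-plate z-scores that were not deposited.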 A plus sign joins genes that one reagent is predicted to hit. The record does not give: the amount of reagent, the time to read-out.

no.	Gene	amplicon	Kc cell number, rep 1	Kc cell number, rep 2	S2R+ cell number, rep 1	S2R+ cell number, rep 2	activity call
1	TTLL3B	DRSC02133	1.60e6	1.50e6	1.09e6	1.20e6	inactive
2	PHDP	DRSC04635	1.65e6	1.74e6	1.38e6	1.47e6	inactive
3	CG11791	DRSC14391	1.31e6	1.54e6	1.18e6	1.27e6	inactive
4	spidey	DRSC17932	1.52e6	1.50e6	9.92e5	1.20e6	inactive
5	CG4364	DRSC02742	1.11e6	1.22e6	1.19e6	1.12e6	inactive
6	CAH9	DRSC15963	1.79e6	1.86e6	1.12e6	1.23e6	inactive
7	CG8950	DRSC07300	1.34e6	1.41e6	1.28e6	1.26e6	inactive
8	CG42335	DRSC14597	1.30e6	1.33e6	1.09e6	1.17e6	inactive
9	CG42335	DRSC15892	1.35e6	1.32e6	1.04e6	1.13e6	inactive
10	CG8910	DRSC07414	1.53e6	1.61e6	1.10e6	1.21e6	inactive
11	tey	DRSC11042	1.34e6	1.49e6	9.78e5	1.08e6	inactive
12	CG9795	DRSC12336	1.44e6	1.50e6	1.33e6	1.36e6	inactive
13	shams	DRSC16590	1.43e6	1.37e6	9.23e5	1.03e6	inactive
14	CG18530	DRSC15341	1.54e6	1.67e6	1.38e6	1.51e6	inactive
15	IntS3	DRSC21215	1.33e6	1.42e6	9.35e5	1.02e6	inactive
16	CG6179	DRSC19973	1.72e6	1.78e6	1.24e6	1.37e6	inactive
17	TwdlO	DRSC16043	1.55e6	1.62e6	9.98e5	1.13e6	inactive
18	CG10559	DRSC14255	1.84e6	1.86e6	1.12e6	1.13e6	inactive
19	CG18477 + CG31780	DRSC01955	1.48e6	1.52e6	1.19e6	1.37e6	inactive
20	Afti	DRSC16440	1.50e6	1.56e6	1.34e6	1.22e6	inactive
21	CG32686	DRSC17645	1.27e6	1.53e6	1.11e6	1.10e6	inactive
22	Ran-like	DRSC10918	1.56e6	1.57e6	1.24e6	1.34e6	inactive
23	CG5246	DRSC15751	1.27e6	1.44e6	1.04e6	1.18e6	inactive
24	eco	DRSC11006	1.31e6	1.35e6	1.01e6	1.02e6	inactive
25	CG11837	DRSC14397	4.67e5		7.42e5		inactive
26	CG10508	DRSC11612	1.64e6	1.73e6	1.34e6	1.37e6	inactive
27	CG10508	DRSC11613	1.67e6	1.62e6	1.42e6	1.50e6	inactive
28	CG8006	DRSC10949	1.32e6	1.35e6	1.18e6	9.45e5	inactive
29	CG3764	DRSC10375	1.63e6	1.71e6	1.20e6	1.35e6	inactive
30	BobA	DRSC09889	1.32e6	1.40e6	1.14e6	1.27e6	inactive
31	strat	DRSC03069	1.89e6	1.95e6	1.19e6	1.42e6	inactive
32	MFS12	DRSC07268	1.35e6	1.38e6	1.10e6	1.03e6	inactive
33	PGRP-SC1a	DRSC06482	1.64e6	1.68e6	1.38e6	1.53e6	inactive
34	CG32643	DRSC18962	1.45e6	1.62e6	1.09e6	1.17e6	inactive
35	U2A	DRSC06445	1.61e6	1.66e6	1.03e6	1.15e6	inactive
36	Xrcc2	DRSC19984	1.62e6	1.59e6	1.13e6	1.30e6	inactive
37	Vago	DRSC19833	1.64e6	1.52e6	1.15e6	1.24e6	inactive
38	CG13082	DRSC02186	1.53e6	1.67e6	1.37e6	4.51e5	inactive
39	hry	DRSC11353	1.02e6	1.17e6	7.36e5	8.04e5	inactive
40	ttk	DRSC14078	1.23e6	1.55e6	1.10e6	1.13e6	inactive
41	ttk	DRSC17091	1.34e6	1.37e6	1.04e6	1.13e6	inactive
42	Ptp69D	DRSC11258	1.36e6	1.64e6	1.16e6	1.25e6	inactive
43	Cpr78E	DRSC11807	1.40e6	1.34e6	1.30e6	1.39e6	inactive
44	Sgs8	DRSC11282	1.34e6	1.27e6	1.33e6	1.44e6	inactive
45	Sugb	DRSC10815	1.31e6	1.38e6	1.18e6	1.12e6	inactive
46	wdp	DRSC04367	1.25e6	1.32e6	1.10e6	1.08e6	inactive
47	CG34161	DRSC01132	1.44e6	1.47e6	1.02e6	1.15e6	inactive
48	CG12321	DRSC14499	1.56e6	1.72e6	1.26e6	1.35e6	inactive
49	RpL24-like	DRSC16111	1.61e6	1.56e6	1.02e6	1.08e6	inactive
50	CG4301	DRSC19886	1.67e6	1.61e6	1.09e6	1.16e6	inactive
51	ewg	DRSC18773	1.57e6	1.60e6	1.12e6	1.26e6	inactive
52	emb	DRSC03528	1.09e6	1.26e6	5.58e5	6.87e5	inactive
53	hng1	DRSC04555	1.45e6	1.52e6	1.17e6	1.24e6	inactive
54	Ir68a	DRSC10599	1.31e6	1.24e6	1.22e6	1.35e6	inactive
55	Hug	DRSC16969	1.43e6	1.43e6	1.31e6	1.39e6	inactive
56	Dlip3	DRSC07401	1.76e6	1.84e6	1.12e6	1.20e6	inactive
57	Uch-L5	DRSC11314	1.26e6	1.41e6	1.25e6	1.22e6	inactive
58	CG13409	DRSC14585	1.28e6	1.33e6	1.02e6	1.12e6	inactive
59	CG15916	DRSC19740	1.42e6	1.44e6	1.09e6	1.14e6	inactive
60	CR9337	DRSC03212	1.26e6	1.35e6	9.35e5	1.01e6	inactive
61	Pif2	DRSC12525	1.50e6	1.60e6	1.25e6	1.32e6	inactive
62	tomboy40	DRSC04918	1.39e6	1.40e6	1.14e6	1.21e6	inactive
63	pyd	DRSC12712	1.47e6	1.46e6	1.07e6	1.21e6	inactive
64	pyd	DRSC14387	1.49e6	1.61e6	1.21e6	1.23e6	inactive
65	pyd	DRSC14445	1.54e6	1.78e6	1.27e6	1.40e6	inactive
66	pyd	DRSC14509	1.65e6	1.83e6	1.30e6	1.41e6	inactive
67	pyd	DRSC16547	1.40e6	1.52e6	1.22e6	1.30e6	inactive
68	pyd	DRSC16548	1.66e6	1.94e6	1.12e6	1.28e6	inactive
69	pyd	DRSC17041	1.58e6	1.96e6	1.27e6	1.39e6	inactive
70	endos	DRSC10658	1.68e6	1.71e6	1.27e6	1.27e6	inactive
71	Utx	DRSC02872	1.91e6	1.90e6	1.12e6	1.26e6	inactive
72	Ih	DRSC07445	1.38e6	1.45e6	1.19e6	1.20e6	inactive
73	CG33459	DRSC05615	4.97e5		7.38e5		inactive
74	CG14613	DRSC20625	1.44e6	1.51e6	1.02e6	1.15e6	inactive
75	CG42650	DRSC12462	1.28e6	1.48e6	1.12e6	1.18e6	inactive

Ordered by “S2R+ cell number, rep 1” (ascending): 12 of the entries above
Gene	amplicon	Kc cell number, rep 1	Kc cell number, rep 2	S2R+ cell number, rep 1	S2R+ cell number, rep 2	activity call
CG11837	DRSC14397	4.67e5		7.42e5		inactive
eco	DRSC11006	1.31e6	1.35e6	1.01e6	1.02e6	inactive
CG5246	DRSC15751	1.27e6	1.44e6	1.04e6	1.18e6	inactive
MFS12	DRSC07268	1.35e6	1.38e6	1.10e6	1.03e6	inactive
BobA	DRSC09889	1.32e6	1.40e6	1.14e6	1.27e6	inactive
CG8006	DRSC10949	1.32e6	1.35e6	1.18e6	9.45e5	inactive
strat	DRSC03069	1.89e6	1.95e6	1.19e6	1.42e6	inactive
CG3764	DRSC10375	1.63e6	1.71e6	1.20e6	1.35e6	inactive
Ran-like	DRSC10918	1.56e6	1.57e6	1.24e6	1.34e6	inactive
CG10508	DRSC11612	1.64e6	1.73e6	1.34e6	1.37e6	inactive
PGRP-SC1a	DRSC06482	1.64e6	1.68e6	1.38e6	1.53e6	inactive
CG10508	DRSC11613	1.67e6	1.62e6	1.42e6	1.50e6	inactive
